From patent WO2014006105A1
Results are given in words; binding and its absence hold for the method and conditions named. Some entries that bind do so weakly or less than the wild type.

Amino acid sequences for entries named in this document (tags omitted).
UniProt Q9NQC3: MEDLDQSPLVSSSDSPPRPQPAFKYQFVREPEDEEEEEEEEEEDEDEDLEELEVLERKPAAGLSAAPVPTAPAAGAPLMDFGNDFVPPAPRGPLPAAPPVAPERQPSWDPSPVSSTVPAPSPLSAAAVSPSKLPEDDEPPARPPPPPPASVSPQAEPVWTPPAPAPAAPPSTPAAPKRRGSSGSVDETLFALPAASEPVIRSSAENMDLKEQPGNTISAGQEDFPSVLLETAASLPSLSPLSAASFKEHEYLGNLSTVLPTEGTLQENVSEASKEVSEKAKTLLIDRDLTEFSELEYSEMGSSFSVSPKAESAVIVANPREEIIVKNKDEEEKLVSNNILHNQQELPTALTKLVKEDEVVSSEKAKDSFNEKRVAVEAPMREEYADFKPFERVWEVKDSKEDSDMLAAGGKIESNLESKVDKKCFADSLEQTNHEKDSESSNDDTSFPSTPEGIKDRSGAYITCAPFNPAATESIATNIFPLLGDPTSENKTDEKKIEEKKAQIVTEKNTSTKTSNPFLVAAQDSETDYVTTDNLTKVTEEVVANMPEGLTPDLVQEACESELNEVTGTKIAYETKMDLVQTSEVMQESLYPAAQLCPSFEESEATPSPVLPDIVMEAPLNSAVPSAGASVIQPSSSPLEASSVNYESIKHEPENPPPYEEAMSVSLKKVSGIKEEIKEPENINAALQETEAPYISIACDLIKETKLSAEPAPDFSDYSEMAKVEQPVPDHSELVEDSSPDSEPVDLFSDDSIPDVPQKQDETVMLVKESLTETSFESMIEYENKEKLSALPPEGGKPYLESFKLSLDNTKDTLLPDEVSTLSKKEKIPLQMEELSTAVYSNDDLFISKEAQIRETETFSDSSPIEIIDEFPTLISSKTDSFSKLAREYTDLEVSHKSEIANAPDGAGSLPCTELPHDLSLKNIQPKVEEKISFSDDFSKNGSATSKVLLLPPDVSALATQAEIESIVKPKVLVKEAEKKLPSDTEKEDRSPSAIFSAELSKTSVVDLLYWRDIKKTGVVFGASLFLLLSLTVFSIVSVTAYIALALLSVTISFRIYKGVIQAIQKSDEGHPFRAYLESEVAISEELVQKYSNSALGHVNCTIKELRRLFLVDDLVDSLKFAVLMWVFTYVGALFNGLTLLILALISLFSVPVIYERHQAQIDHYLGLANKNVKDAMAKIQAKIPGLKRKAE

Legend:
human Nogo-A (human) [1] = biological target: human Nogo-A (human) (UniProt Q9NQC3); experiment: laser scanning cytometry of muscle biopsy sections (Figure 7 legend)
human Nogo-A (human) [2] = biological target: human Nogo-A (human) (UniProt Q9NQC3); experiment: laser scanning cytometry of muscle biopsy sections, pre and post dose
human Nogo-A (human) [3] = biological target: human Nogo-A (human) (UniProt Q9NQC3); experiment: immunofluorescence of muscle biopsy sections, individual channels
human Nogo-A (human) [4] = biological target: human Nogo-A (human) (UniProt Q9NQC3); experiment: laser scanning cytometry, gating and back gating, post-dose biopsy 15 mg/kg

Measured: binding

B1: H28L16 (antibody, V domains shown)
VH: QVQLVQSGAEVKKPGASVKVSCKASGYTFTSYWMHWVRQAPGQGLEWIGNINPSNGGTNYNEKFKSKATMTRDTSTSTAYMELSSLRSEDTAVYYCELMQGYWGQGTLVTVSS
VL: DIVMTQSPLSNPVTLGQPVSISCRSSKSLLYKDGKTYLNWFQQRPGQSPQLLIYLMSTRASGVPDRFSGGGSGTDFTLKISRVEAEDVGVYYCQQLVEYPLTFGQGTKLEIK
binds: all assays above
